Where “and” joins values, the source holds several entries; their conditions need not be identical. Equal values may be shown once.
Assay: Propylene polymerization (PP) in small-scale autoclave reactors: yield, quench time, catalyst activity
Settings: for yield: polymer yield, not corrected for catalyst residue; for quench time: 0.015 umol catalyst complex
Description: Solutions of the pre-catalysts were made using toluene (ExxonMobil Chemical—anhydrous, stored under N2) (98%) or isohexane (ExxonMobil Chemical—polymerization grade, and purified as described below). Pre-catalyst solutions were typically 0.25 mmol/L.
Solvents, polymerization grade toluene and/or isohexanes were supplied by ExxonMobil Chemical Co. and are purified by passing through a series of columns: two 500 cc Oxyclear cylinders in series from Labclear (Oakland, Calif), followed by two 500 cc columns in series packed with dried […] (8-12 mesh; Aldrich Chemical Company), and two 500 cc columns in series packed with dried 5 Å mole sieves (8-12 mesh; Aldrich Chemical Company).
Polymerization grade propylene (C3) was used and further purified by passing it through a series of columns: 2250 cc Oxiclear cylinder from Labclear followed by a 2250 cc column packed with 3 Å mole sieves (8-12 mesh; Aldrich Chemical Company), then two 500 cc columns in series packed with 5 Å mole sieves (8-12 mesh; Aldrich Chemical Company), then a 500 cc column packed with Selexsorb CD (BASF), and finally a 500 cc column packed with Selexsorb COS (BASF).
Activation of the pre-catalysts was either by dimethylanilinium tetrakisperfluorophenylborate (Boulder Scientific or Albemarle Corp; Act ID=A) or is (hydrogenated tallow alkyl)methylammonium tetrakis(pentafluorophenyl)borate supplied as a 10 wt % solution in methylcyclohexane (Boulder Scientific; Act ID=B). Activators were typically used as a 0.25 mmol/L solution in toluene or isohexane.
Tri-n-octylaluminum (TnOAl or TNOA, Neat, AkzoNobel) was also used as a scavenger prior to introduction of the activator and pre-catalyst into the reactor. TNOA was typically used as a 5 mmol/L solution in toluene or isohexane.
Polymerizations were conducted in an inert atmosphere (N2) drybox using autoclaves equipped with an external heater for temperature control, glass inserts (internal volume of reactor=23.5 mL for C2 and C2/C8; 22.5 mL for C3 runs), septum inlets, regulated supply of nitrogen, ethylene and propylene, and equipped with disposable PEEK mechanical stirrers (800 RPM). The autoclaves were prepared by purging with dry nitrogen at 110° C. or 115° C. for 5 hours and then at 25° C. for 5 hours.
The reactor was prepared as described above, then heated to 40° C., and then purged with propylene gas at atmospheric pressure. Toluene or isohexanes, liquid propylene (1.0 mL) and scavenger (TNOA, 0.5 μmol) were added via syringe. The reactor was then brought to process temperature (70° C. or 100° C.) while stirring at 800 RPM. The activator solution, followed by the pre-catalyst solution, were injected via syringe to the reactor at process conditions. Reactor temperature was monitored and typically maintained within +/−1° C. Polymerizations were halted by addition of approximately 50 psi compressed dry air gas mixture to the autoclaves for approximately 30 seconds. The polymerizations were quenched based on a predetermined pressure loss (maximum quench value) or for a maximum of 30 minutes. The reactors were cooled and vented. The polymers were isolated after the solvent was removed in-vacuo. The actual quench time (s) is reported as quench time (s). Yields reported include total weight of polymer and residual catalyst. Catalyst activity is reported as grams of polymer per mmol transition metal compound per hour of reaction time (g/mmol·hr).
Polymerization results are collected in Tables 2 below. “Ex #” stands for example number. Example numbers starting with a “C” are comparative examples. “Cat ID” identifies the pre-catalyst used in the experiment. Corresponding numbers identifying the pre-catalyst (also referred to as pre-catalyst, catalyst, complex or compound) are located in the synthetic experimental section. T(° C.) is the polymerization temperature which was typically maintained within +/−1° C. “Yield” is polymer yield, and is not corrected for catalyst residue. […]

[1] = activator A, T 70° C., propylene homopolymerization
[2] = activator A, T 100° C., propylene homopolymerization
[3] = activator A, T 70 ° C., 1.0 mL propylene

Structure (SMILES) | yield (activator A, T 70° C.) | quench time [1] | yield (activator A, T 100° C.) | quench time [2] | yield (activator B, T 70° C.) | yield (activator B, T 100° C.) | quench time (activator B, T 100° C., propylene homopolymerization) | quench time [3] | quench time (activator B, T 70 ° C., 1.0 mL propylene)
Cc1cc2c(c(C34CC5CC(CC(C5)C3)C4)c1)[O][Zr-]1([CH3])([CH3])[O]c3c(cc(C)cc3C34CC5CC(CC(C5)C3)C4)-c3ccccc3-c3cccc([n+]31)-c1ccccc1-2 [Complex 1] | 0.3543 g and 0.4127 g and 0.4037 g | 15 s and 13 s and 14 s | 0.2621 g and 0.3151 g and 0.2204 g | 16 s and 17 s and 20 s |  |  |  |  | 
CC(C)(C)c1cc2c(c(C34CC5CC(CC(C5)C3)C4)c1)[O][Zr-]1([CH3])([CH3])[O]c3c(cc(C(C)(C)C)cc3C34CC5CC(CC(C5)C3)C4)-c3ccccc3-c3cccc([n+]31)-c1ccccc1-2 [Complex 2] | 0.3777 g and 0.431 g and 0.4143 g |  | 0.2842 g and 0.3363 g and 0.2458 g |  | 0.3535 g and 0.3501 g and 0.2818 g | 0.2345 g and 0.2459 g and 0.2874 g | 24 s and 22 s and 31 s |  | 
Cc1cc2[n+]3c(c1)-c1ccccc1-c1cc(C(C)(C)C)cc(C45CC6CC(CC(C6)C4)C5)c1[O][Zr-]3([CH3])([CH3])[O]c1c(cc(C(C)(C)C)cc1C13CC4CC(CC(C4)C1)C3)-c1ccccc1-2 [Complex 3] | 0.3382 g and 0.3518 g |  | 0.1677 g and 0.28 g and 0.1897 g |  | 0.322 g and 0.3359 g and 0.3318 g | 0.1794 g and 0.2302 g and 0.2075 g |  | 50 s and 36 s | 75 s and 77 s
Cc1cc2c(c(C34CC5CC(C)(CC(C)(C5)C3)C4)c1)[O][Hf-]1([CH3])([CH3])[O]c3c(cc(C)cc3C34CC5CC(C)(CC(C)(C5)C3)C4)-c3ccccc3-c3cc(N4CCCC4)cc([n+]31)-c1ccccc1-2 [Complex 30] | 0.0533 g and 0.0513 g and 0.0640 g | 1801 s and 1800 s | 0.0334 g and 0.0503 g and 0.0584 g | 1800 s and 1613 s |  |  |  |  | 
Cc1cc2[n+]3c(c1)-c1ccccc1-c1cc(C(C)(C)C)cc(C45CC6CC(CC(C6)C4)C5)c1[O][Zr-]3([CH3])([CH3])[O]c1c(cc(C(C)(C)C)cc1C13CC4CC(CC(C4)C1)C3)-c1ccccc1-2 [compound 3] | 0.3651 g |  |  |  |  |  |  | 70 s | 

Reference: patent US20250277066A1, “Substituted Pyridine-2,6-Bis(Phenylenephenolate) Complexes with Enhanced Solubility that are Useful as Catalyst Components for Olefin Polymerization” (ExxonMobil Chemical Patents Inc., priority 2022, published 2025)
